Taken from: PubChem BioAssay AID1259308 (NCATS, 2017)
Test: 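Genes whose loss raises luciferase production in HEK293 cells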 (primary screen). Cells: human HEK293 embryonic kidney cells stably expressing firefly luciferase (HEK-CMV-Luc2-Hygro). Reagent: single siRNA against human genes, 0.8 pmol siRNA per well. Timing: 72 h. Measured: 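Reporter luminescence and viable-cell signal on separate replicate plates, given as percent of non-targeting control and median/MAD z-scores, plus per-cell luciferase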. Direction: total luciferase, z-score and total luciferase, % of control: higher = more reporter protein produced; luciferase per cell, z-score: higher = more reporter output per viable cell; viable cells, % of control: higher = more viable cells. Hit rule: 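Active when the median/MAD z-score for overall luciferase is greater than 3; a gene was taken forward for validation with new siRNAs if at least two of its three siRNAs passed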. Meaning of the calls: active = raised luciferase; inactive = no rise.
In all, the deposit lists about 59,000 reagents; shown is a random part of them. About 1,510 of them (2.6%) were called active. 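Calls use total luciferase alone and ignore viability, so some active siRNAs may act by altering cell number.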 The numbers tell different reagents against one gene apart.

no.	gene symbol	reagent no.	total luciferase, z-score	total luciferase, % of control	luciferase per cell, z-score	viable cells, % of control	Call
1	PCDHGB6 (protocadherin gamma subfamily B, 6)	1	1.28	107	0.505	105	inactive
2	PCDHGB6 (protocadherin gamma subfamily B, 6)	2	0.17	85.3	0.281	88.5	inactive
3	PCDHGB6 (protocadherin gamma subfamily B, 6)	3	0.133	84.5	-0.388	105	inactive
4	FOXD4L3 (forkhead box D4 like 3)	1	-0.894	64.1	1.3	50.8	inactive
5	FOXD4L3 (forkhead box D4 like 3)	2	0.992	102	0.623	96.4	inactive
6	FOXD4L3 (forkhead box D4 like 3)	3	0.431	90.5	0.411	90.7	inactive
7	MAF (MAF bZIP transcription factor)	1	-1.05	61.1	-0.952	87.7	inactive
8	MAF (MAF bZIP transcription factor)	2	0.34	88.6	0.0735	97.2	inactive
9	MAF (MAF bZIP transcription factor)	3	1.95	121	2.07	78.2	inactive
10	SPAM1 (sperm adhesion molecule 1)	1	-0.344	75	-0.26	89.8	inactive
11	SPAM1 (sperm adhesion molecule 1)	2	0.458	91	-0.529	117	inactive
12	SPAM1 (sperm adhesion molecule 1)	3	0.437	90.6	0.749	83.1	inactive
13	MYT1 (myelin transcription factor 1)	1	-0.821	65.5	-0.746	89.1	inactive
14	MYT1 (myelin transcription factor 1)	2	-0.3	75.9	0.269	79	inactive
15	MYT1 (myelin transcription factor 1)	3	-0.285	76.2	0.00421	85.1	inactive
16	EPN3 (epsin 3)	1	1.1	104	0.529	101	inactive
17	EPN3 (epsin 3)	2	-0.0925	80	0.265	83.4	inactive
18	EPN3 (epsin 3)	3	1.97	121	1.98	80.3	inactive
19	OR9G4 (olfactory receptor family 9 subfamily G member 4)	1	-0.538	71.2	-0.205	84	inactive
20	OR9G4 (olfactory receptor family 9 subfamily G member 4)	2	-2.35	35.2	-0.827	48.9	inactive
21	OR9G4 (olfactory receptor family 9 subfamily G member 4)	3	0.226	86.4	-0.0299	97.3	inactive

Single entries from above.
Entry of EPN3 (epsin 3) #1 in “total luciferase, z-score”: 1.1
PCDHGB6 (protocadherin gamma subfamily B, 6) #1, total luciferase, % of control: 107
Under “total luciferase, z-score”, PCDHGB6 (protocadherin gamma subfamily B, 6) #2 reads 0.17
MYT1 (myelin transcription factor 1) #3, viable cells, % of control = 85.1
Under “viable cells, % of control”, FOXD4L3 (forkhead box D4 like 3) #3 is entered as 90.7
FOXD4L3 (forkhead box D4 like 3) #1, luciferase per cell, z-score = 1.3

Next entries follow:
no.	gene symbol	reagent no.	total luciferase, z-score	total luciferase, % of control	luciferase per cell, z-score	viable cells, % of control	Call
22	RPS3AP5 (RPS3A pseudogene 5)	1	-1.53	51.5	-1.03	75.5	inactive
23	RPS3AP5 (RPS3A pseudogene 5)	2	-0.529	71.4	-0.518	91.4	inactive
24	RPS3AP5 (RPS3A pseudogene 5)	3	-1.79	46.3	-0.544	59.7	inactive
25	RSBN1L (round spermatid basic protein 1 like)	1	0.555	92.9	-0.0607	106	inactive
26	RSBN1L (round spermatid basic protein 1 like)	2	-1.41	53.8	-1.63	92.5	inactive
27	RSBN1L (round spermatid basic protein 1 like)	3	1.13	104	2.01	68.8	inactive
28	ARSB (arylsulfatase B)	1	-0.216	77.6	-0.524	99.5	inactive
29	ARSB (arylsulfatase B)	2	0.233	86.5	0.175	92.3	inactive
30	ARSB (arylsulfatase B)	3	1.1	104	0.365	105	inactive
31	E2F3 (E2F transcription factor 3)	1	0.0481	82.8	-0.488	105	inactive
32	E2F3 (E2F transcription factor 3)	2	-0.195	78	-0.922	111	inactive
33	E2F3 (E2F transcription factor 3)	3	-0.473	72.5	-0.461	91.4	inactive
34	IGFBP7 (insulin like growth factor binding protein 7)	1	0.165	85.2	0.31	87.7	inactive
35	IGFBP7 (insulin like growth factor binding protein 7)	2	-0.782	66.3	-0.713	89.4	inactive
36	IGFBP7 (insulin like growth factor binding protein 7)	3	-0.415	73.6	-0.249	87.8	inactive
37	CYTH2 (cytohesin 2)	1	-0.897	64.1	-1.22	98.8	inactive
38	CYTH2 (cytohesin 2)	2	0.941	101	0.0578	111	inactive
39	CYTH2 (cytohesin 2)	3	0.276	87.4	0.123	94.5	inactive
40	ITGB3 (integrin subunit beta 3)	1	0.0568	83	-0.625	109	inactive
41	ITGB3 (integrin subunit beta 3)	2	-0.269	76.5	-0.256	91.5	inactive
42	ITGB3 (integrin subunit beta 3)	3	0.109	84	-0.772	115	inactive
43	CYP26B1 (cytochrome P450 family 26 subfamily B member 1)	1	0.619	94.2	-0.0837	108	inactive
44	CYP26B1 (cytochrome P450 family 26 subfamily B member 1)	2	2.17	125	2.2	78.1	inactive
45	CYP26B1 (cytochrome P450 family 26 subfamily B member 1)	3	0.212	86.1	-0.0665	97.9	inactive
46	MVB12A (multivesicular body subunit 12A)	1	-0.0514	80.9	-0.613	106	inactive
47	MVB12A (multivesicular body subunit 12A)	2	2.06	123	2.09	79.2	inactive
48	MVB12A (multivesicular body subunit 12A)	3	-0.0827	80.2	-0.753	109	inactive
49	CHI3L2 (chitinase 3 like 2)	1	-0.176	78.4	-0.635	104	inactive
50	CHI3L2 (chitinase 3 like 2)	2	1.08	103	0.45	103	inactive
51	CHI3L2 (chitinase 3 like 2)	3	0.946	101	0.443	100	inactive
52	UTP15 (UTP15 small subunit processome component)	1	-1.47	52.7	-0.809	72.8	inactive
53	UTP15 (UTP15 small subunit processome component)	2	0.524	92.3	1.19	75.3	inactive
54	UTP15 (UTP15 small subunit processome component)	3	0.464	91.1	1.53	68	inactive
55	SLC35A1	1	0.245	86.8	0.327	89	inactive
56	SLC35A1	2	0.441	90.7	0.375	91.8	inactive
57	SLC35A1	3	3.74	156	2.86	82.2	active
